This is one part of the list.
Compound: CC[C@@H]1C(=O)N(C)c2cnc(Nc3ccc(C(=O)NC4CCN(C)CC4)cc3OC)nc2N1C1CCCC1
Assay: log2 fold change, soluble protein after heating vs DMSO (PISA); higher = thermal stabilisation; K562 cells, 10 uM, 30 min; active = over 0.2 and 3.5 SD of the protein, either way, in both replicates (recomputed)
Summary of the method: (§1)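 K562 cells at 2×10^6 cells/mL were treated with 10 μM compound for 30 min. Aliquots were heated for 3 min across 48°C-58°C, pooled, and extracted in PBS with 0.5% NP-40 at 4°C; soluble protein was the supernatant after 21,000xg for 90 min. Soluble protein was quantified by TMTpro 16plex LC-MS/MS with channel sums equalised, and reported as log2 fold change in thermal stability against DMSO controls, with values from duplicates.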

Sequences of proteins named here, by UniProt entry; tags and fusion partners are left off. A change or cut given only in a name is not applied to a line headed by its entry.
UniProt Q9P2J5: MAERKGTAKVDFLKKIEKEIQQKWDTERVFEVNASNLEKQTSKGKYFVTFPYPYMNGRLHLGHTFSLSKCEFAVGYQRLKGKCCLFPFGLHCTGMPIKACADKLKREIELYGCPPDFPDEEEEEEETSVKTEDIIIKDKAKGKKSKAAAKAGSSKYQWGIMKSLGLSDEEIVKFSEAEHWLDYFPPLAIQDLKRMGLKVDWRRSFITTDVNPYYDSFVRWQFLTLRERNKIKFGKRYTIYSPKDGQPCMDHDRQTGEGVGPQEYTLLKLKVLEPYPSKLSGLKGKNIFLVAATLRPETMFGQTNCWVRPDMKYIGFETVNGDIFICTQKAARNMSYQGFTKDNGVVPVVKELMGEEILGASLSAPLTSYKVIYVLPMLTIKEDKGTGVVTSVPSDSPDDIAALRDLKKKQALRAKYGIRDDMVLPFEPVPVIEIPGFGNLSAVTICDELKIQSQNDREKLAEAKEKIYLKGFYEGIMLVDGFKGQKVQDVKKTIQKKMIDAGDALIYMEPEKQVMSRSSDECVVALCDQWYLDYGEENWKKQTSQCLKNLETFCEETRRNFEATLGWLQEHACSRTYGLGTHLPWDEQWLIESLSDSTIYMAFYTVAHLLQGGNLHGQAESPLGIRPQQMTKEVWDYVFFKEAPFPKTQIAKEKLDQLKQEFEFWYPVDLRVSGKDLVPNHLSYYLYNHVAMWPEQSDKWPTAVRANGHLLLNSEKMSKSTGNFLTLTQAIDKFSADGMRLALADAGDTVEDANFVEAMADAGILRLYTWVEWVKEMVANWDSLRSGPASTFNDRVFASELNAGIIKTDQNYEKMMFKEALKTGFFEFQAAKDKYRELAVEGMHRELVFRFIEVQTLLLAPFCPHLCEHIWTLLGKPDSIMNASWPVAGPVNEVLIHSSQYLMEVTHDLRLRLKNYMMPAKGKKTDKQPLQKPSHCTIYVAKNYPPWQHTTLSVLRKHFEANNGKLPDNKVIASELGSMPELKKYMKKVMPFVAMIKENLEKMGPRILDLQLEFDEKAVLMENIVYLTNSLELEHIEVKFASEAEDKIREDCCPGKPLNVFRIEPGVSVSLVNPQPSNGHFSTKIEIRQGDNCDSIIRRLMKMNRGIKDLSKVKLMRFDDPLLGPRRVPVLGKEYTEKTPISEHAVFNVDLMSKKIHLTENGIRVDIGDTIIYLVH
UniProt Q6IAA8, whole entry, looked up: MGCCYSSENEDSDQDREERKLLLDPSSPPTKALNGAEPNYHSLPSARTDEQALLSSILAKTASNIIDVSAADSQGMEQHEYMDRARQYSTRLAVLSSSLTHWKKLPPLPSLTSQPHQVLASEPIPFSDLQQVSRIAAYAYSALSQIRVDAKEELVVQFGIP
UniProt Q9H008: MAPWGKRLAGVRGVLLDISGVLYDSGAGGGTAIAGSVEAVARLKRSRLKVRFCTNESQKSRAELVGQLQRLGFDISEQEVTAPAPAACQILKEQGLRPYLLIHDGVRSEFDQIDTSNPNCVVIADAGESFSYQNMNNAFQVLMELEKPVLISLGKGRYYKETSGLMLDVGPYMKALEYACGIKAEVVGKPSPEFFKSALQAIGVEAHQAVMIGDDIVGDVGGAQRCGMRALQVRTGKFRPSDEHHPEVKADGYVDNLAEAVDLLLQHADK
UniProt P28838: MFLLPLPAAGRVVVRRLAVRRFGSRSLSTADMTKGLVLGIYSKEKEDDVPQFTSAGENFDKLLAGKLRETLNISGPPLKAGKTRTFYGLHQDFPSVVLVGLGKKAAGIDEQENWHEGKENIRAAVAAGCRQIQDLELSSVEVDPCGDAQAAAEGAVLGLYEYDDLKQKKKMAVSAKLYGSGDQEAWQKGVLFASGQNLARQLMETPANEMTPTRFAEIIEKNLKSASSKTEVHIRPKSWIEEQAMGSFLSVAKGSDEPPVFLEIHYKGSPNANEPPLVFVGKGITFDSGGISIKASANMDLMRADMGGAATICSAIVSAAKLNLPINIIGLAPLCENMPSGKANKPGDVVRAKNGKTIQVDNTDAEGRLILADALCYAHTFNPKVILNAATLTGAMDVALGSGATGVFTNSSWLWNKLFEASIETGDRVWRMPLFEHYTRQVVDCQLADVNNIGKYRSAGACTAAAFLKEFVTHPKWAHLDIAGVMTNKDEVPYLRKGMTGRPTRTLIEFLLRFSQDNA
UniProt O43813, whole entry, looked up: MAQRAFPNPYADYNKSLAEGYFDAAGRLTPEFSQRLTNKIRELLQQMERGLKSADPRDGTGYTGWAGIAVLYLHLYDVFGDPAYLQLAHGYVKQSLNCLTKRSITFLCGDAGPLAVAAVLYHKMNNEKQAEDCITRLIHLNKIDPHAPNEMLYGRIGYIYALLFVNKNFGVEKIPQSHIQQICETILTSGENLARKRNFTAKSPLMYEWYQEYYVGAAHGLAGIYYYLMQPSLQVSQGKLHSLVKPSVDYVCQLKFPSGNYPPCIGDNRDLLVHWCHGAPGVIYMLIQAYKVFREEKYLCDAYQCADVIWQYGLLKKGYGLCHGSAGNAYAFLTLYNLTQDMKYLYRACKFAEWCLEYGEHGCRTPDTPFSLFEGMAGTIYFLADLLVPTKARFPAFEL
UniProt Q14847: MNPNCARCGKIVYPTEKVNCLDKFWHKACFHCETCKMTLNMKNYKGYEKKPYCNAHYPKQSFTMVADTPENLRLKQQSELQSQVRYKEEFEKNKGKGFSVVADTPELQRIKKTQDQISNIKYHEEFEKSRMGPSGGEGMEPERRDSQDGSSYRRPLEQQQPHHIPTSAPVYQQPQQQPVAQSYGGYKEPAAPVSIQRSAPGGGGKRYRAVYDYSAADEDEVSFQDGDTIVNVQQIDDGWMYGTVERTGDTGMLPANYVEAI
UniProt Q96EM0: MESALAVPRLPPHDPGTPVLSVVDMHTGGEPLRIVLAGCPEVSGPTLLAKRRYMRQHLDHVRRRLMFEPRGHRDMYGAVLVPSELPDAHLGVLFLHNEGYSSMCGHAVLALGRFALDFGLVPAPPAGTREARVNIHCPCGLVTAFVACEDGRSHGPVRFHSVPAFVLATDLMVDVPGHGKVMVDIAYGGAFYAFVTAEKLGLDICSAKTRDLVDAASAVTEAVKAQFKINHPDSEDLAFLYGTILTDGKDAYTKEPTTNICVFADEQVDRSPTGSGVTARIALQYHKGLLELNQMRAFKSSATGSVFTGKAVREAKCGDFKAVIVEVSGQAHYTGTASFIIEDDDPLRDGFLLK
UniProt P48059, whole entry, looked up: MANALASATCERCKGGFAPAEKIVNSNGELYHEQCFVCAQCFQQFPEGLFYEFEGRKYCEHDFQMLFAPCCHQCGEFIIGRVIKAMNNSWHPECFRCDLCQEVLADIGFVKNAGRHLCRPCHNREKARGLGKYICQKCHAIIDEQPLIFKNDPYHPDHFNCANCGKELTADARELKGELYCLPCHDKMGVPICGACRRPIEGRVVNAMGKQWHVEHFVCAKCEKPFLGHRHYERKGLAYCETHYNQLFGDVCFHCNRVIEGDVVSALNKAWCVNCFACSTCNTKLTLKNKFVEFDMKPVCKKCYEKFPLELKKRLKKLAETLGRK
UniProt Q9BRT6: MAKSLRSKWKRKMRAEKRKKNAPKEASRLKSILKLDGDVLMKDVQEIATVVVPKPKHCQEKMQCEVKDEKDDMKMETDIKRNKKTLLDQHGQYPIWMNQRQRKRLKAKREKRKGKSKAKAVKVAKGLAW
UniProt Q53H82: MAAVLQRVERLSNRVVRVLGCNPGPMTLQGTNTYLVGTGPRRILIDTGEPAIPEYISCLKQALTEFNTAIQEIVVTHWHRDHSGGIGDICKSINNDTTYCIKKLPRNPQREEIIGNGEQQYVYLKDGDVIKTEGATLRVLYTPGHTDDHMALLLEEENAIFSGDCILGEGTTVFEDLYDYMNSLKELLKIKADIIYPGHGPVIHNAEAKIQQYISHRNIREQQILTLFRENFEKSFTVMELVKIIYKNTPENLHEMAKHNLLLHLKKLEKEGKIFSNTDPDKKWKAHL
UniProt P07195, whole entry, looked up: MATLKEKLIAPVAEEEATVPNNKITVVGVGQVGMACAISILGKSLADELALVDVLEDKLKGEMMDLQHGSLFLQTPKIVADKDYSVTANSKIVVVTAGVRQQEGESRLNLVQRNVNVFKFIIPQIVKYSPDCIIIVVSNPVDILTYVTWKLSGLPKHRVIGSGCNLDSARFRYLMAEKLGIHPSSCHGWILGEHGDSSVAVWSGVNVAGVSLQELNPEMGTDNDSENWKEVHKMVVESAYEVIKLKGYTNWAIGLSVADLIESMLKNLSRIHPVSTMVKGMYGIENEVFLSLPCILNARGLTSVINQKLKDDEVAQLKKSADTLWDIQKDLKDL
UniProt Q9H0V9: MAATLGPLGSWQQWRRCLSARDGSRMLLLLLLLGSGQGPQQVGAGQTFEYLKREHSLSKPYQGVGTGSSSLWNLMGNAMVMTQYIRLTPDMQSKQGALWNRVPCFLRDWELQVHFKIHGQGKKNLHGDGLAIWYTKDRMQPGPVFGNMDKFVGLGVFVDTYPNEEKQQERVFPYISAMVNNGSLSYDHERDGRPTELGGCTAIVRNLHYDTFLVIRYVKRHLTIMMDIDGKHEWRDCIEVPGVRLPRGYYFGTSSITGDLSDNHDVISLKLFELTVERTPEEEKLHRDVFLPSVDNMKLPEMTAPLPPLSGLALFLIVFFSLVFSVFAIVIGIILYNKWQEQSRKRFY
UniProt Q8TCA0: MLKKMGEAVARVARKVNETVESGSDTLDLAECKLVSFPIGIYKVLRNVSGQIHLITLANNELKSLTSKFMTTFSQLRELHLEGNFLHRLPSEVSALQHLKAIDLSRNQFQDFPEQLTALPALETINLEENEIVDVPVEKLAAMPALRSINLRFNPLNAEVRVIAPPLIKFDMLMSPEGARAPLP
UniProt Q9Y2Q5, whole entry, looked up: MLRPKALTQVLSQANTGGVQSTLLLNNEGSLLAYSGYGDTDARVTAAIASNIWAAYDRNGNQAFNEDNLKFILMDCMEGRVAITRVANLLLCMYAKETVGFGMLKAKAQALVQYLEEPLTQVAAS
UniProt Q6ZN17: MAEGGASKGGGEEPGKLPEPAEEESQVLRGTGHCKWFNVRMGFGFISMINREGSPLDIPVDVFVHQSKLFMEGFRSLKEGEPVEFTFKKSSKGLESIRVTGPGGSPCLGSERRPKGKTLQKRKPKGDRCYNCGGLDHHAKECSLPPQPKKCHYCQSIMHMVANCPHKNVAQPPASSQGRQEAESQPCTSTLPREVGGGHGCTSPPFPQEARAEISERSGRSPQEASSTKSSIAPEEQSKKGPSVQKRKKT
UniProt Q12907: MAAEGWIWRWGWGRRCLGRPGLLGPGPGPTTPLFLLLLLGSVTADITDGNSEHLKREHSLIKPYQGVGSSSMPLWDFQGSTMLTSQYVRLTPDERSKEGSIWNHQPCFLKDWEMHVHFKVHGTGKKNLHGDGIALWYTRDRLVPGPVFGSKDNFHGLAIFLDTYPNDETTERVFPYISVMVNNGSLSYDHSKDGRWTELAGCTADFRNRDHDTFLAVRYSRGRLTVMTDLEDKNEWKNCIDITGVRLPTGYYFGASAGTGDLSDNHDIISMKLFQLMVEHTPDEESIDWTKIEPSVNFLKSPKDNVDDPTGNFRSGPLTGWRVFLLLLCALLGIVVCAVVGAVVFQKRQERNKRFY
UniProt Q9NS86: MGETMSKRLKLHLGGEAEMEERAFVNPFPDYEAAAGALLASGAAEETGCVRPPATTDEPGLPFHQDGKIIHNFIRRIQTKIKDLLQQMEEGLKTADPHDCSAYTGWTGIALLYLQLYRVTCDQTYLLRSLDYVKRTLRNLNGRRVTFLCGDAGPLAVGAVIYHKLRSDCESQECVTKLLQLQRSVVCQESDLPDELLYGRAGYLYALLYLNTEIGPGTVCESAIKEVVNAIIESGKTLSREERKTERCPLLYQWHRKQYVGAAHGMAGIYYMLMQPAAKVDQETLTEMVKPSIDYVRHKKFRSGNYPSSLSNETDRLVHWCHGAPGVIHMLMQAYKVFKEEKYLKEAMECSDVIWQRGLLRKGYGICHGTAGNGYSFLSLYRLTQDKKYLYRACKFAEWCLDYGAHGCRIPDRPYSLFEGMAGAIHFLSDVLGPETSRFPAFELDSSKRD
UniProt P13796: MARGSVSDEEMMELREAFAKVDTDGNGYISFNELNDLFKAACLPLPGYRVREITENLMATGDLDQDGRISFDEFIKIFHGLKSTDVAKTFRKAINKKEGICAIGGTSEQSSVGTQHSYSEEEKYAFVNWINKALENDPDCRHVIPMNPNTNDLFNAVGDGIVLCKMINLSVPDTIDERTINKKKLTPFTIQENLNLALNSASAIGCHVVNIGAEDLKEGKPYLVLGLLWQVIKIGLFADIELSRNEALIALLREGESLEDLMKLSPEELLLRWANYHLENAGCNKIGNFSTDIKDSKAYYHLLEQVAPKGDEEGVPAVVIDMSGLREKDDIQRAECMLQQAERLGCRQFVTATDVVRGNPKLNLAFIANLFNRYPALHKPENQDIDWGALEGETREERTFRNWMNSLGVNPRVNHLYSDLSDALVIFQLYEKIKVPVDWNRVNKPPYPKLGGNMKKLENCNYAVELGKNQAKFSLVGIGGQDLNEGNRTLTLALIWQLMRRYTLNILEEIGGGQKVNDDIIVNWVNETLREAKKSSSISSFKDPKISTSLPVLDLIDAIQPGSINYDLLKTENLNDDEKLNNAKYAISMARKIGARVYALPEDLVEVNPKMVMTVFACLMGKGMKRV

Target	log2 fold change
LARS (UniProt Q9P2J5)	inactive: 0.092
KYAT3 (UniProt Q6YP21)	inactive: 0.054
LAMTOR1 (UniProt Q6IAA8)	inactive: -0.2
LHPP (UniProt Q9H008)	inactive: 0.058
LAP3 (UniProt P28838)	inactive: -0.003
LANCL1 (UniProt O43813)	inactive: 0.002
LASP1 (UniProt Q14847)	inactive: -0.003
LRRC47 (UniProt Q8N1G4)	inactive: 0
L3HYPDH (UniProt Q96EM0)	inactive: -0.032
LRRC57 (UniProt Q8N9N7)	inactive: 0.002
LIMS1 isoform 3 (UniProt P48059)	inactive: -0.009
LARS2 (UniProt Q15031)	inactive: -0.03
LLPH (UniProt Q9BRT6)	inactive: 0.288
LACTB2 (UniProt Q53H82)	inactive: -0.006
LCMT1 (UniProt Q9UIC8)	inactive: -0.014
LDB1 (UniProt Q86U70)	inactive: 0.028

Target	log2 fold change
LENG1 (UniProt Q96BZ8)	inactive: 0.067
LIG1 (UniProt P18858)	inactive: -0.119
LETM1 (UniProt O95202)	inactive: -0.093
LDHB (UniProt P07195)	inactive: 0.003
LMAN2L isoform 2 (UniProt Q9H0V9)	inactive: -0.005
LPCAT1 (UniProt Q8NF37)	inactive: 0.017
LRRC20 (UniProt Q8TCA0)	inactive: 0.002
LCLAT1 (UniProt Q6UWP7)	inactive: -0.01
LAMTOR2 (UniProt Q9Y2Q5)	inactive: -0.026
LONP1 (UniProt P36776)	inactive: 0.028
LIN28B (UniProt Q6ZN17)	inactive: 0.131
LMAN2 (UniProt Q12907)	inactive: -0.034
LANCL2 (UniProt Q9NS86)	inactive: 0.023
LCP1 (UniProt P13796)	inactive: 0.011
LIMK2 isoform 3 (UniProt P53671)	inactive: -0.014
LRRC40 (UniProt Q9H9A6)	inactive: -0.057

Compound: CC[C@@H]1C(=O)N(C)c2cnc(Nc3ccc(C(=O)N[C@H]4CC[C@H](N5CCN(CC6CC6)CC5)CC4)cc3OC)nc2N1C(C)C [volasertib]
Assay: as above
Summary of the method: as §1

Target	log2 fold change
LARS (UniProt Q9P2J5)	inactive: 0.023
KYAT3 (UniProt Q6YP21)	inactive: 0.052
LAMTOR1 (UniProt Q6IAA8)	inactive: -0.111
LHPP (UniProt Q9H008)	inactive: -0.009
LAP3 (UniProt P28838)	inactive: -0.014
LANCL1 (UniProt O43813)	inactive: 0.076
LASP1 (UniProt Q14847)	inactive: 0.072
LRRC47 (UniProt Q8N1G4)	inactive: 0.027
L3HYPDH (UniProt Q96EM0)	inactive: 0.078
LRRC57 (UniProt Q8N9N7)	inactive: 0.001
LIMS1 isoform 3 (UniProt P48059)	inactive: 0.013
LARS2 (UniProt Q15031)	inactive: -0.13
LLPH (UniProt Q9BRT6)	inactive: 0.253
LACTB2 (UniProt Q53H82)	inactive: 0.056
LCMT1 (UniProt Q9UIC8)	inactive: -0.001
LDB1 (UniProt Q86U70)	inactive: 0.027

Target	log2 fold change
LENG1 (UniProt Q96BZ8)	inactive: 0.115
LIG1 (UniProt P18858)	inactive: -0.205
LETM1 (UniProt O95202)	inactive: -0.085
LDHB (UniProt P07195)	inactive: 0.024
LMAN2L isoform 2 (UniProt Q9H0V9)	inactive: -0.037
LPCAT1 (UniProt Q8NF37)	inactive: -0.228
LRRC20 (UniProt Q8TCA0)	inactive: -0.028
LCLAT1 (UniProt Q6UWP7)	inactive: -0.062
LAMTOR2 (UniProt Q9Y2Q5)	inactive: 0.071
LONP1 (UniProt P36776)	inactive: 0.061
LIN28B (UniProt Q6ZN17)	inactive: 0.096
LMAN2 (UniProt Q12907)	inactive: -0.021
LANCL2 (UniProt Q9NS86)	inactive: 0.07
LCP1 (UniProt P13796)	inactive: 0.027
LIMK2 isoform 3 (UniProt P53671)	inactive: -0.086
LRRC40 (UniProt Q9H9A6)	inactive: -0.314

Compound: CC[C@H](C)N1C=C(C2=C(C=C(C=C21)C3=CN=C(C=C3)N4CCNCC4)C(=O)NCC5=C(C=C(NC5=O)C)C)C
Assay: as above
Summary of the method: as §1

Target	log2 fold change
LARS (UniProt Q9P2J5)	inactive: 0.047
KYAT3 (UniProt Q6YP21)	inactive: -0.059
LAMTOR1 (UniProt Q6IAA8)	inactive: 0.022
LHPP (UniProt Q9H008)	inactive: -0.023
LAP3 (UniProt P28838)	inactive: -0.03
LANCL1 (UniProt O43813)	inactive: -0.023
LASP1 (UniProt Q14847)	inactive: -0.032
LRRC47 (UniProt Q8N1G4)	inactive: 0.01
L3HYPDH (UniProt Q96EM0)	inactive: 0.02
LRRC57 (UniProt Q8N9N7)	inactive: 0.013
LIMS1 isoform 3 (UniProt P48059)	inactive: -0.006
LARS2 (UniProt Q15031)	inactive: 0.024
LLPH (UniProt Q9BRT6)	inactive: -0.028
LACTB2 (UniProt Q53H82)	inactive: 0.007
LCMT1 (UniProt Q9UIC8)	inactive: 0.011
LDB1 (UniProt Q86U70)	inactive: -0.021

Target	log2 fold change
LENG1 (UniProt Q96BZ8)	inactive: -0.018
LIG1 (UniProt P18858)	inactive: 0.099
LETM1 (UniProt O95202)	inactive: 0.016
LDHB (UniProt P07195)	inactive: -0.035
LMAN2L isoform 2 (UniProt Q9H0V9)	inactive: 0.016
LPCAT1 (UniProt Q8NF37)	inactive: 0.015
LRRC20 (UniProt Q8TCA0)	inactive: 0.027
LCLAT1 (UniProt Q6UWP7)	inactive: 0.007
LAMTOR2 (UniProt Q9Y2Q5)	inactive: -0.037
LONP1 (UniProt P36776)	inactive: -0.004
LIN28B (UniProt Q6ZN17)	inactive: 0.02
LMAN2 (UniProt Q12907)	inactive: 0.011
LANCL2 (UniProt Q9NS86)	inactive: -0.034
LCP1 (UniProt P13796)	inactive: -0.029
LIMK2 isoform 3 (UniProt P53671)	inactive: -0.167
LRRC40 (UniProt Q9H9A6)	inactive: 0.132
